These are yes or no findings as the source states them, for the method shown. For part of these data: In cells and extracts the contact can be indirect. Some binding calls cover weakened binding; strength is not graded here. Sequences can lack the tags named with a protein. Values belong to the binder of their own block, whether it stands above or below them.
Columns and labels:
[1] = target: T1, Recombinant 6x his tagged full-length LSD2 (human) (UniProt Q8NB78); assay: GST pulldown of His-LSD2, SDS-PAGE, Coomassie
T1 sequence: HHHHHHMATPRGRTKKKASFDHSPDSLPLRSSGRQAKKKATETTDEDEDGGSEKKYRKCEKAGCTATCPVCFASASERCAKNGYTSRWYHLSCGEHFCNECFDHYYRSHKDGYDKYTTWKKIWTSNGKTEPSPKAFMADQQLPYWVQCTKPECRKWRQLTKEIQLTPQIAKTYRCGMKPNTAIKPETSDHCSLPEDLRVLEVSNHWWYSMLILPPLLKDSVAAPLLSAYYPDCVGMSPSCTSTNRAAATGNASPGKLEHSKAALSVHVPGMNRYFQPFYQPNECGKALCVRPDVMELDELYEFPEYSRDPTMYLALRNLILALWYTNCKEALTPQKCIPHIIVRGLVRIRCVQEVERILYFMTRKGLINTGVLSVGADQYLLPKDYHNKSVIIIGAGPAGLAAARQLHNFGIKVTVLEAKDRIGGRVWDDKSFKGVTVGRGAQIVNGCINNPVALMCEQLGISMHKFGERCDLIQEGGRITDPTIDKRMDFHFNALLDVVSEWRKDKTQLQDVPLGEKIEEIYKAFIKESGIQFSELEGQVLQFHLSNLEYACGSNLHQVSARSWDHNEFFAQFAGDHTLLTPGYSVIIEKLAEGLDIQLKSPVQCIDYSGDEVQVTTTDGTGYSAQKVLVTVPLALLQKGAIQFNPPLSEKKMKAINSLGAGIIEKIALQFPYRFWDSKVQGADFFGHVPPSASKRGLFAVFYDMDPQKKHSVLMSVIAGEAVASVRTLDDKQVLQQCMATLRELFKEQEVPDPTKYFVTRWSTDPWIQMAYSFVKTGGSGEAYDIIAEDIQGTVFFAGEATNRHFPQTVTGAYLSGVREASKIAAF

[2] = target: T1, Recombinant 6x his tagged full-length LSD2 (human); assay: GST pulldown of purified His-LSD2, SDS-PAGE, Coomassie
[3] = target: T1, Recombinant 6x his tagged full-length LSD2 (human); assay: GST pulldown of purified full-length His-LSD2, SDS-PAGE, coomassie
[4] = target: T1, Recombinant 6x his tagged full-length LSD2 (human); assay: GST pulldown of purified His-LSD2, SDS-PAGE, coomassie (FIG. 2D)
[5] = target: T2, Endogenous NPAC (human cells) (human) (UniProt Q49A26); assay: tandem affinity purification from HeLa, immunoblot with anti-NPAC
T2 sequence: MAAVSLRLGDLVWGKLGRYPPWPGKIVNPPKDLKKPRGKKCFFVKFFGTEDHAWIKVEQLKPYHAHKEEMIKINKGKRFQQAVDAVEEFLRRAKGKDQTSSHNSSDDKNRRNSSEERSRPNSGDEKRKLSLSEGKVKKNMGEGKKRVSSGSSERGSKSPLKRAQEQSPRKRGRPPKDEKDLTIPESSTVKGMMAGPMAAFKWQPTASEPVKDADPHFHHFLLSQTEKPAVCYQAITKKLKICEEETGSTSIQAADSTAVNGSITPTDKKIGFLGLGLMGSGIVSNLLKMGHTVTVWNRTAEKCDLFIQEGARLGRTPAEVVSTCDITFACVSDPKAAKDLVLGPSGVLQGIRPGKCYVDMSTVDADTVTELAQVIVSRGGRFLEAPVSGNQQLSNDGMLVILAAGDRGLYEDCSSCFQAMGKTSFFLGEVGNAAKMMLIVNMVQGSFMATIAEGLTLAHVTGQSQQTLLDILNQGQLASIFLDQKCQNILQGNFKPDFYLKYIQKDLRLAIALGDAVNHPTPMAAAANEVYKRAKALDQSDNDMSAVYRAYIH

[6] = target: T2, Endogenous NPAC (human cells) (human); assay: tandem affinity purification, immunoblot with anti-NPAC
[7] = target: T3, Recombinant His-NPAC (His6 tagged full-length NPAC) purified from E. coli (human) (UniProt Q49A26); assay: GST pulldown of recombinant His-NPAC, SDS-PAGE, Coomassie
T3 sequence: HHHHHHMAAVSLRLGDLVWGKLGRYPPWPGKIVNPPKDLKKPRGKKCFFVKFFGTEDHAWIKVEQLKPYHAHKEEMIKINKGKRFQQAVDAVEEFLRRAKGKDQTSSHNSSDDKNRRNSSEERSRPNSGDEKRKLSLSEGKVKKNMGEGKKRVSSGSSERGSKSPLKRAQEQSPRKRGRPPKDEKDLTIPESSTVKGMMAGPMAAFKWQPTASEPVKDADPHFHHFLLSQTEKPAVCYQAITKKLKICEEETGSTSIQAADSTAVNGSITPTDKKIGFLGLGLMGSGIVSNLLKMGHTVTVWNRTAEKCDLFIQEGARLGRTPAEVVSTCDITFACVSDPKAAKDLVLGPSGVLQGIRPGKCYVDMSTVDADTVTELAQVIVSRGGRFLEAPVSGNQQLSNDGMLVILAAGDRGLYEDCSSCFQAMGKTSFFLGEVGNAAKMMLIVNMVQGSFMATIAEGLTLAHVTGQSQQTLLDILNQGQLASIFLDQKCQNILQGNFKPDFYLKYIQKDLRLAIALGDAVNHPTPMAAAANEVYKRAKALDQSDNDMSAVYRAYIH

binding [2]: binds
binding [3]: binds
B4: GST-NPAC (GST tagged wild-type full-length NPAC) (protein, not shown: a dimerising Fc or GST)
chain: T2 sequence

binding [1]: binds
binding [3]: binds
B6: GST-NP.d8 (NPAC residues 188-252) (protein, not shown: a dimerising Fc or GST)
chain: TVKGMMAGPMAAFKWQPTASEPVKDADPHFHHFLLSQTEKPAVCYQAITKKLKICEEETGSTSIQ

binding [2]: binds
binding [3]: binds
B7: GST-NP.d4 (NPAC residues 152-553) (protein, not shown: a dimerising Fc or GST)
chain: SERGSKSPLKRAQEQSPRKRGRPPKDEKDLTIPESSTVKGMMAGPMAAFKWQPTASEPVKDADPHFHHFLLSQTEKPAVCYQAITKKLKICEEETGSTSIQAADSTAVNGSITPTDKKIGFLGLGLMGSGIVSNLLKMGHTVTVWNRTAEKCDLFIQEGARLGRTPAEVVSTCDITFACVSDPKAAKDLVLGPSGVLQGIRPGKCYVDMSTVDADTVTELAQVIVSRGGRFLEAPVSGNQQLSNDGMLVILAAGDRGLYEDCSSCFQAMGKTSFFLGEVGNAAKMMLIVNMVQGSFMATIAEGLTLAHVTGQSQQTLLDILNQGQLASIFLDQKCQNILQGNFKPDFYLKYIQKDLRLAIALGDAVNHPTPMAAAANEVYKRAKALDQSDNDMSAVYRAYIH

The remaining lines, values behind:

B1: GST-NP.d3 (NPAC residues 152-252, linker region) (protein, not shown: a dimerising Fc or GST)
chain: SERGSKSPLKRAQEQSPRKRGRPPKDEKDLTIPESSTVKGMMAGPMAAFKWQPTASEPVKDADPHFHHFLLSQTEKPAVCYQAITKKLKICEEETGSTSIQ
binding [1]: binds
binding [2]: binds
binding [3]: binds
binding [4]: binds

B2: FLAG-HA tagged LSD2 bait protein (stably expressed in HeLa, tandem affinity purified) (enzyme, human, UniProt Q8NB78 1-822, looked up, not shown: small tags and cut ends)
chain: MATPRGRTKKKASFDHSPDSLPLRSSGRQAKKKATETTDEDEDGGSEKKYRKCEKAGCTATCPVCFASASERCAKNGYTSRWYHLSCGEHFCNECFDHYYRSHKDGYDKYTTWKKIWTSNGKTEPSPKAFMADQQLPYWVQCTKPECRKWRQLTKEIQLTPQIAKTYRCGMKPNTAIKPETSDHCSLPEDLRVLEVSNHWWYSMLILPPLLKDSVAAPLLSAYYPDCVGMSPSCTSTNRAAATGNASPGKLEHSKAALSVHVPGMNRYFQPFYQPNECGKALCVRPDVMELDELYEFPEYSRDPTMYLALRNLILALWYTNCKEALTPQKCIPHIIVRGLVRIRCVQEVERILYFMTRKGLINTGVLSVGADQYLLPKDYHNKSVIIIGAGPAGLAAARQLHNFGIKVTVLEAKDRIGGRVWDDKSFKGVTVGRGAQIVNGCINNPVALMCEQLGISMHKFGERCDLIQEGGRITDPTIDKRMDFHFNALLDVVSEWRKDKTQLQDVPLGEKIEEIYKAFIKESGIQFSELEGQVLQFHLSNLEYACGSNLHQVSARSWDHNEFFAQFAGDHTLLTPGYSVIIEKLAEGLDIQLKSPVQCIDYSGDEVQVTTTDGTGYSAQKVLVTVPLALLQKGAIQFNPPLSEKKMKAINSLGAGIIEKIALQFPYRFWDSKVQGADFFGHVPPSASKRGLFAVFYDMDPQKKHSVLMSVIAGEAVASVRTLDDKQVLQQCMATLRELFKEQEVPDPTKYFVTRWSTDPWIQMAYSFVKTGGSGEAYDIIAEDIQGTVFFAGEATNRHFPQTVTGAYLSGVREASKIAAF
binding [5]: binds
binding [6]: binds

B3: GST-LSD2 recombinant protein (enzyme, human, UniProt Q8NB78 1-822, looked up, not shown: a dimerising Fc or GST)
chain: B2 chain
binding [7]: binds

B5: GST-NP.d2 (NPAC residues 1-252) (protein, not shown: a dimerising Fc or GST)
chain: MAAVSLRLGDLVWGKLGRYPPWPGKIVNPPKDLKKPRGKKCFFVKFFGTEDHAWIKVEQLKPYHAHKEEMIKINKGKRFQQAVDAVEEFLRRAKGKDQTSSHNSSDDKNRRNSSEERSRPNSGDEKRKLSLSEGKVKKNMGEGKKRVSSGSSERGSKSPLKRAQEQSPRKRGRPPKDEKDLTIPESSTVKGMMAGPMAAFKWQPTASEPVKDADPHFHHFLLSQTEKPAVCYQAITKKLKICEEETGSTSIQ
binding [2]: binds
binding [3]: binds
